Measurements reported in PubChem BioAssay AID1259308 (NCATS, 2017).
Aim: 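Candidate targets for better recombinant protein yield in mammalian cells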 (primary screen). Cell system: human HEK293 embryonic kidney cells stably expressing firefly luciferase (HEK-CMV-Luc2-Hygro). Reagent: single siRNA against human genes, 0.8 pmol siRNA per well. Time to read-out: 72 h. Measured: 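Reporter luminescence and viable-cell signal on separate replicate plates, given as percent of non-targeting control and median/MAD z-scores, plus per-cell luciferase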. Direction: total luciferase, z-score and total luciferase, % of control: higher = more reporter protein produced; luciferase per cell, z-score: higher = more reporter output per viable cell; viable cells, % of control: higher = more viable cells. Call rule: 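An siRNA counts as active if its total luciferase robust z-score exceeds 3; genes with two or more such siRNAs out of three were retested with fresh siRNAs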. Meaning of the calls: active = raised luciferase; inactive = no rise.
Here is one part, drawn at random, of about 59,000 reagents. Over the whole deposit, about 1,510 (2.6%) are marked active. 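Calls use total luciferase alone and ignore viability, so some active siRNAs may act by altering cell number.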 Reagents against one gene are numbered here.

gene symbol | reagent | total luciferase, z-score | total luciferase, % of control | luciferase per cell, z-score | viable cells, % of control | outcome
TRIP12 | 1 | -0.0288 | 81.3 | -0.274 | 97.7 | inactive
TRIP12 | 2 | 1.75 | 117 | 0.736 | 107 | inactive
TRIP12 | 3 | 1.24 | 107 | 0.324 | 109 | inactive
NMNAT3 | 1 | 1.63 | 114 | 2.17 | 72.1 | inactive
NMNAT3 | 2 | -0.801 | 65.9 | 0.0782 | 72.2 | inactive
NMNAT3 | 3 | -0.64 | 69.2 | -0.968 | 99.7 | inactive
TEFM | 1 | -0.186 | 78.2 | -0.546 | 101 | inactive
TEFM | 2 | 0.00161 | 81.9 | -0.0503 | 92.8 | inactive
TEFM | 3 | 0.235 | 86.6 | 0.127 | 93.5 | inactive
ADCY9 | 1 | 0.306 | 88 | 0.805 | 79.5 | inactive
ADCY9 | 2 | -0.268 | 76.6 | -0.773 | 105 | inactive
ADCY9 | 3 | 0.0839 | 83.6 | -0.464 | 106 | inactive
SRSF6 | 1 | 2.39 | 129 | 1.02 | 111 | inactive
SRSF6 | 2 | -0.0199 | 81.5 | 0.0235 | 90.5 | inactive
SRSF6 | 3 | -0.67 | 68.6 | -1.24 | 106 | inactive
NACA3P | 1 | -1.08 | 60.4 | 2.09 | 39 | inactive
NACA3P | 2 | 1.75 | 117 | 2 | 76.9 | inactive
NACA3P | 3 | -0.0722 | 80.5 | -0.53 | 103 | inactive
KRTAP1-1 | 1 | -0.0469 | 81 | 1.1 | 67.7 | inactive
KRTAP1-1 | 2 | 1.17 | 105 | 0.394 | 106 | inactive
KRTAP1-1 | 3 | -0.934 | 63.3 | -1.08 | 94.1 | inactive
OR52E4 | 1 | 1.56 | 113 | 1.49 | 85.1 | inactive
OR52E4 | 2 | 0.0952 | 83.8 | 0.401 | 84.2 | inactive
OR52E4 | 3 | 0.647 | 94.8 | 0.211 | 100 | inactive
PEX19 | 1 | -2.62 | 29.8 | -4.04 | 96.4 | inactive
PEX19 | 2 | 0.552 | 92.9 | 0.549 | 89.8 | inactive
PEX19 | 3 | 0.353 | 88.9 | 0.213 | 93.9 | inactive
CCL28 | 1 | 1.03 | 102 | 0.986 | 88.3 | inactive
CCL28 | 2 | -0.962 | 62.7 | 0.13 | 67.8 | inactive
CCL28 | 3 | -0.13 | 79.3 | -0.581 | 103 | inactive
CHRD | 1 | -0.276 | 76.4 | 0.514 | 74.6 | inactive
CHRD | 2 | -0.523 | 71.5 | 0.129 | 77.2 | inactive
CHRD | 3 | -0.884 | 64.3 | -0.505 | 82.1 | inactive
ERICH6B | 1 | 0.967 | 101 | 0.874 | 89.8 | inactive
ERICH6B | 2 | 2.12 | 124 | 1.53 | 92.7 | inactive
ERICH6B | 3 | -0.0308 | 81.3 | -0.204 | 95.8 | inactive
NEB | 1 | -0.202 | 77.9 | -0.396 | 96.6 | inactive
NEB | 2 | 0.372 | 89.3 | -0.506 | 114 | inactive
NEB | 3 | 0.374 | 89.3 | -0.309 | 108 | inactive
ADGRF5 | 1 | 0.0347 | 82.6 | -0.155 | 96.1 | inactive
ADGRF5 | 2 | -0.0628 | 80.6 | -0.212 | 95.3 | inactive
ADGRF5 | 3 | 0.532 | 92.5 | -0.366 | 114 | inactive
TCF19 | 1 | 0.458 | 91 | 0.41 | 91.3 | inactive
TCF19 | 2 | -0.728 | 67.4 | 0.027 | 74.8 | inactive
TCF19 | 3 | 1.44 | 110 | 1.12 | 92 | inactive
NOP10 | 1 | -0.0791 | 80.3 | -0.13 | 92.9 | inactive
NOP10 | 2 | 1.02 | 102 | 0.919 | 89.7 | inactive
NOP10 | 3 | 1.73 | 116 | 1.32 | 91.6 | inactive
PDP2 | 1 | -0.623 | 69.5 | 0.342 | 71 | inactive
PDP2 | 2 | -0.812 | 65.7 | -1.29 | 103 | inactive
PDP2 | 3 | 1.04 | 103 | 0.725 | 94.7 | inactive
SLC10A6 | 1 | -0.117 | 79.6 | -0.489 | 101 | inactive
SLC10A6 | 2 | 0.769 | 97.2 | 0.311 | 100 | inactive
SLC10A6 | 3 | -0.0726 | 80.4 | 0.508 | 78.6 | inactive
MGAT2 | 1 | 0.681 | 95.4 | 0.729 | 88 | inactive
MGAT2 | 2 | 1.37 | 109 | 2.73 | 59.4 | inactive
MGAT2 | 3 | 0.733 | 96.5 | 1.05 | 81.8 | inactive

Single entries from the entries so far:
For “total luciferase, z-score”, CHRD #2 is entered as -0.523
Under “total luciferase, z-score”, SLC10A6 #3 shows -0.0726
For “outcome”, CHRD #3 is entered as inactive
For “total luciferase, z-score”, SLC10A6 #1 reads -0.117
ADGRF5 #1, outcome: inactive
NACA3P #3, luciferase per cell, z-score → -0.53
